Test results: patent publication US7932227 (UNIVERSITY OF VIRGINIA PATENT FOUNDATION, dated 2011)

Key:
[1] = biological target: human SDC1 'del 51-310' (human); assay: lacritin-intein beads with lysate of HEK293T transfectants, 3G10 blot
[2] = biological target: human SDC1 'del 51-252' (human); assay: as above

- binding [1]: binds
- binding [2]: binds
B1: lacritin-intein (lacritin coupled to chitin beads via chitin-binding intein) (ligand, not shown: small tags and cut ends)
chain: EDASSDSTGADPAQEAGTSKPNEEISGPAEPASPPETTTTAQETSAAAVQGTAKVTSSRQELNPLKSIVEKSILLTEQALAKAGKGMHGGVPGGKQFIENGSEFAQKLLKKFSLLKPWA
notes: Bacterial fusion protein held on chitin beads; also called lacritin-intein beads; lacritin column

No constants are given. Whether binding was seen depends on the method and setting. Binding can be weak; no strength is given.
